In assay [1] the target is T1, recombinant Sp17 protein (human) (UniProt Q15506).
T1 sequence (looked up): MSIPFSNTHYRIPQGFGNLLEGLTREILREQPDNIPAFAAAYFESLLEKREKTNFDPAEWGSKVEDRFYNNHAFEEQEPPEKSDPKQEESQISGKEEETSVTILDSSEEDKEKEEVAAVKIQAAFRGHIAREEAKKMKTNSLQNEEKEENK
Nature of the assay: western blot of recombinant Sp17 protein.

Assay [2] deals with T2, recombinant 6His-Sp17 protein (human, UniProt Q15506 1-151).
T2 construct: Analyte of the surface plasmon resonance experiment; not shown: 6His tag
T2 sequence (looked up): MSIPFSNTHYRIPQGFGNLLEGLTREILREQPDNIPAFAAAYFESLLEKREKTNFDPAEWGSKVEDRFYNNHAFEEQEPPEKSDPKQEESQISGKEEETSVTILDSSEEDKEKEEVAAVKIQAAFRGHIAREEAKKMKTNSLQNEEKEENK
Nature of the assay: surface plasmon resonance (Biacore T200), 6His-Sp17 at six concentrations against chAB2, fitted cycles.

Assay [3] concerns the target T1, recombinant Sp17 protein (human). Kind of assay: western blot of Sp17 protein on an SDS-PAGE gel, detected with chAB2.
Assay [4] shares this target. Nature of the assay: western blot of Sp17 protein. In general terms: A western blot detects proteins with antibodies after separation by electrophoresis.
The target is the same in assay [5]. Nature of the assay: ELISA of phage display Fab clones on Sp17.
The target is the same in assay [6]. Nature of the assay: western blot.
For assay [7] the target is unchanged. Kind of assay: western blot of Sp17 protein (lane 1) and a tumor cell lysate (lane 2).
For assay [8] the target is unchanged. Kind of assay: western blot of Sp17 protein on an SDS-PAGE gel, detected with SP17-AB2.

Results are given in words; binding and its absence hold for the method and conditions named. Some results given as binding are weak or reduced against the parent protein; the word gives no strength. For some assays here: Where a sequence is shown, tags or fusion partners need not be part of it.

B1: mouse-human chimeric anti-Sp17 IgG2a/kappa monoclonal antibody chAB2 (antibody, V domains shown)
VH: QVQLQQSGAEVKKPGSSVKVSCKASGGTFSSYAISWVRQAPGQGLEWMGRIIPILGIANYAQKFQGRVTITADKSTSTAYMELSSLRSEDTAVYYCARPSEEVVAAYGAFDIWGQGTTVTVSS
VL: EIVLTQSPLSLPVRPGEPASISCRASQSLLRSDGFNYLDWYLQKPGQSPQLLVYLGSNRASGVPDRFSGSGSGTDFTLKISRVEAEDVGVYYCMQAVQTPYIFGQGTKLEIK
notes: also called chimeric antibody; anti-Sp17 antibody chAB2
With B1, the binding entry in assay [1], in assay [2], in assay [3] and in assay [4] was “binds” throughout.

B2: anti-Sp17 Fab clone identified by bio-panning of the human Fab phage display library (Fab, V domains shown)
VH: QVQLQQSGAEVKKPGSSVKVSCKASGGTFSSYAISWVRQAPGQGLEWMGRIIPILGIANYAQKFQGRVTITADKSTSTAYMELSSLRSEDTAVYYCARPSEEVVAAYGAFDIWGQGTTVTVSS
VL: EIVLTQSPLSLPVRPGEPASISCRASQSLLRSDGFNYLDWYLQKPGQSPQLLVYLGSNRASGVPDRFSGSGSGTDFTLKISRVEAEDVGVYYCMQAVQTPYIFGQGTKLEIK
With B2, the binding entry in assay [5] is “binds”.

B3: human anti-Sp17 IgG4/kappa monoclonal antibody SP17-AB2 (antibody, V domains shown)
VH: QVQLQQSGAEVKKPGSSVKVSCKASGGTFSSYAISWVRQAPGQGLEWMGRIIPILGIANYAQKFQGRVTITADKSTSTAYMELSSLRSEDTAVYYCARPSEEVVAAYGAFDIWGQGTTVTVSS
VL: EIVLTQSPLSLPVRPGEPASISCRASQSLLRSDGFNYLDWYLQKPGQSPQLLVYLGSNRASGVPDRFSGSGSGTDFTLKISRVEAEDVGVYYCMQAVQTPYIFGQGTKLEIKR
Regarding B3, the binding result in assay [6], in assay [7] and in assay [8] was “binds” each time.
